Measurements as given in publication PMC5725494, “Cell cycle-dependent phosphorylation regulates RECQL4 pathway choice and ubiquitination in DNA double-strand break repair”.
Residue numbers refer to the chain shown, from its start. Construct, isoform or probe ends are uncertain for at least one entry. At least one verdict was read from the data and is not stated in words by the source. Protein sequences can lack the tags named with them.

Legend:
Test in all cases: EMSA
Settings in all cases: 50 nM protein, similar affinity for all three proteins; 25 mM HEPES pH 7.4, 5 mM MnCl2, 1 mM DTT, 100 ng/mL BSA, 5% glycerol, no ATP; 10 min at 37 °C; 10% native PAGE; recombinant protein; protein details: 3xFLAG
[1] = target: T1, RECQL4 WT (RQ4Wt) (UniProt O94761)
T1 sequence (looked up, limits assumed): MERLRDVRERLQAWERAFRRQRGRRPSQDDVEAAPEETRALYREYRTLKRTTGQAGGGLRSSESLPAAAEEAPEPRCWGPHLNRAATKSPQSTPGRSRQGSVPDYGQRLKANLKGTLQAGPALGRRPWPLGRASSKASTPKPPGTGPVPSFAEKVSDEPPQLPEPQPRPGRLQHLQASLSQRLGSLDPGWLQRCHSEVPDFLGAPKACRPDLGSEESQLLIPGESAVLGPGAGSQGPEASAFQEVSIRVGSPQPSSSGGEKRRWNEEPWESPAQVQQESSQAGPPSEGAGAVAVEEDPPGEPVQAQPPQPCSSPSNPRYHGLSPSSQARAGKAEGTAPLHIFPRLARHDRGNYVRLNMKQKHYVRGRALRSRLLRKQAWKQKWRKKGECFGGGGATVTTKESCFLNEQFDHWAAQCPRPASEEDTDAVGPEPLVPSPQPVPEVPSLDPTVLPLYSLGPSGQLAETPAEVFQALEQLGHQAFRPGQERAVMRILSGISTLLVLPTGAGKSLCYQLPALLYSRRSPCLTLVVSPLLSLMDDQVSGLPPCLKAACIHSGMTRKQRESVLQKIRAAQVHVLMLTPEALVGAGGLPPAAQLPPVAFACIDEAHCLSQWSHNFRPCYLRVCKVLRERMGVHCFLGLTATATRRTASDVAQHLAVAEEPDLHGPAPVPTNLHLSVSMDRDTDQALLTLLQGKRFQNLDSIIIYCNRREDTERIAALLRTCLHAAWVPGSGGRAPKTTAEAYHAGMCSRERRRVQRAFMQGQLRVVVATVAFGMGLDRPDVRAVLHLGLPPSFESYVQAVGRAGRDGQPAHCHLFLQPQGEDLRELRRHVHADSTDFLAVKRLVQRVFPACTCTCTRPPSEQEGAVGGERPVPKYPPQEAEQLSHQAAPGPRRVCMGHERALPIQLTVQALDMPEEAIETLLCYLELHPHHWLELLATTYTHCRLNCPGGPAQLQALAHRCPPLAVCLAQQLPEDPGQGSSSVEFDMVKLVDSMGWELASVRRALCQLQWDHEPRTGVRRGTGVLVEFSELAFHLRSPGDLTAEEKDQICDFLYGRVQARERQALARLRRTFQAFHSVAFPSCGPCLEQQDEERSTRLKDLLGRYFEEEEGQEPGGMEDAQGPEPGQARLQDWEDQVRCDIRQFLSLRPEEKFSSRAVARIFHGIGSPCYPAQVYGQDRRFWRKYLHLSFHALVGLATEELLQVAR

[2] = target: T2, RECQL4 RQ4-2D S89D,S251D (UniProt O94761)
T2 sequence (looked up, limits assumed): T1 sequence (looked up, limits assumed) with S89D, S251D

[3] = target: T3, RECQL4 RQ4-2A S89A,S251A (UniProt O94761)
T3 sequence (looked up, limits assumed): T1 sequence (looked up, limits assumed) with S89A, S251A

Measured: binding result

ACTTGAATGCGGCTTAGTATGCATTGTAAAACGACGGCCAGTGC / AATGCATACTAAGCCGCATTCAAGT [duplex with 3' ssDNA overhang]
binds: all assays above
